In patent US5756684:
Where cells or extracts were used, other partners may take part. For some of these results: Negatives hold for the conditions tested. For some of these results: A weaker result is weaker than the reference pair of the same experiment.

Protein sequences, listed by entry. Tags and fused reporters are not part of them. Residues count along the entry.
UniProt Q00577, 2-322: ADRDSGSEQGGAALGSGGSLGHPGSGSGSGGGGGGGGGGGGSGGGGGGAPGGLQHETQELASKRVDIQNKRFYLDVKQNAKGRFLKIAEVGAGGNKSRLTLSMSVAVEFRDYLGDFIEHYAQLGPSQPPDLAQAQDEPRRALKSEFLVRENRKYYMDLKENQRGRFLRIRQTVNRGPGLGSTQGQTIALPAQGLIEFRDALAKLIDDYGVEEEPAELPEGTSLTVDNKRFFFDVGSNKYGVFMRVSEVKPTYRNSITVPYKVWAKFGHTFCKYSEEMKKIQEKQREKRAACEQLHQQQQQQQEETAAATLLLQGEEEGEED

Columns and labels:
[1] = target: Pur (PUR factor, HeLa nuclear extract) (Homo sapiens) (UniProt Q00577); assay: competition with a labelled probe; settings: protein in an extract, single-stranded DNA
[2] = target: Pur (PUR factor, HeLa nuclear extract) (Homo sapiens) (UniProt Q00577); assay: EMSA; settings: protein in an extract, single-stranded DNA

ATCCCTTCTCCCTCTCCCTCATCA [DF3506 (dhfr C-T)]
binding result ([1]; no competition at 100x excess): no binding

GGAGATAGTAGAGGGAGAGAAAAG [MB0677 (Mut. III)]
binding result ([2]; binds weakly as probe, least able to compete): binds more weakly

GGAGATAGTGGAGGGAAAGAAAAG [MA0677 (Mut. II)]
binding result [2]: binds more weakly

GGAGGTGGTGGAGGGAGAGAAAAG [MF0677 (c-myc PUR element, purine strand)]
binding result ([2]; HeLa nuclear extract, 45 mM KCl, pH 7.9, 30 C, also UV cross-linked (FIG. 4), G contacts by methylation interference (FIG. 5), label: 5'-32P): binds

TACTGAATTCACTTAACACT [MF0562]
binding result ([1]; no competition at 100x excess): no binding

TCTCAAGCTTGGTCCCTCAC [MR0740]
binding result ([1]; no inhibition up to 300-fold): no binding

TGATGAGGGAGAGGGAGAAGGGAT [DR3529 (dhfr G-A)]
binding result [2]: binds
